{
  "source": "paper PMC4481955",
  "about": "“Sensitive, Fast, and Specific Immunoassays for Methyltestosterone Detection” (Sensors (Basel, Switzerland), 2015)",
  "system": "GNPs-labelled MT mAb",
  "assay": "immunochromatographic strip assay",
  "type": "binding, mouse",
  "note": "Where “and” joins values, the source holds several entries; their conditions need not be identical. Equal entries are not always repeated.",
  "data": [
    {"smiles": "C[C@]12CCC(=O)C=C1CC[C@@H]1[C@@H]2CC[C@@]2(C)[C@H]1CC[C@]2(C)O", "note": "[Methyltestosterone]", "values": [
      {"measurement": "visual cut-off value", "setting": "in PBS, listed as MT", "value": "1 ng/mL and 1.25 ng/mL"},
      {"measurement": "visual cut-off value", "setting": "in fish feed", "value": 2.5, "unit": "ng/g"},
      {"measurement": "visual cut-off value", "setting": "in pig feed", "value": 2.5, "unit": "ng/g"}
    ]}
  ]
}
